{
  "sequences": {"note": "Chains of the proteins cited; added tags and fusions are not shown. Lines headed by an entry give the natural chain unless they say otherwise; changes in a name come on top. Residues count along the entry.", "UniProt P35968, residues 20-1356": "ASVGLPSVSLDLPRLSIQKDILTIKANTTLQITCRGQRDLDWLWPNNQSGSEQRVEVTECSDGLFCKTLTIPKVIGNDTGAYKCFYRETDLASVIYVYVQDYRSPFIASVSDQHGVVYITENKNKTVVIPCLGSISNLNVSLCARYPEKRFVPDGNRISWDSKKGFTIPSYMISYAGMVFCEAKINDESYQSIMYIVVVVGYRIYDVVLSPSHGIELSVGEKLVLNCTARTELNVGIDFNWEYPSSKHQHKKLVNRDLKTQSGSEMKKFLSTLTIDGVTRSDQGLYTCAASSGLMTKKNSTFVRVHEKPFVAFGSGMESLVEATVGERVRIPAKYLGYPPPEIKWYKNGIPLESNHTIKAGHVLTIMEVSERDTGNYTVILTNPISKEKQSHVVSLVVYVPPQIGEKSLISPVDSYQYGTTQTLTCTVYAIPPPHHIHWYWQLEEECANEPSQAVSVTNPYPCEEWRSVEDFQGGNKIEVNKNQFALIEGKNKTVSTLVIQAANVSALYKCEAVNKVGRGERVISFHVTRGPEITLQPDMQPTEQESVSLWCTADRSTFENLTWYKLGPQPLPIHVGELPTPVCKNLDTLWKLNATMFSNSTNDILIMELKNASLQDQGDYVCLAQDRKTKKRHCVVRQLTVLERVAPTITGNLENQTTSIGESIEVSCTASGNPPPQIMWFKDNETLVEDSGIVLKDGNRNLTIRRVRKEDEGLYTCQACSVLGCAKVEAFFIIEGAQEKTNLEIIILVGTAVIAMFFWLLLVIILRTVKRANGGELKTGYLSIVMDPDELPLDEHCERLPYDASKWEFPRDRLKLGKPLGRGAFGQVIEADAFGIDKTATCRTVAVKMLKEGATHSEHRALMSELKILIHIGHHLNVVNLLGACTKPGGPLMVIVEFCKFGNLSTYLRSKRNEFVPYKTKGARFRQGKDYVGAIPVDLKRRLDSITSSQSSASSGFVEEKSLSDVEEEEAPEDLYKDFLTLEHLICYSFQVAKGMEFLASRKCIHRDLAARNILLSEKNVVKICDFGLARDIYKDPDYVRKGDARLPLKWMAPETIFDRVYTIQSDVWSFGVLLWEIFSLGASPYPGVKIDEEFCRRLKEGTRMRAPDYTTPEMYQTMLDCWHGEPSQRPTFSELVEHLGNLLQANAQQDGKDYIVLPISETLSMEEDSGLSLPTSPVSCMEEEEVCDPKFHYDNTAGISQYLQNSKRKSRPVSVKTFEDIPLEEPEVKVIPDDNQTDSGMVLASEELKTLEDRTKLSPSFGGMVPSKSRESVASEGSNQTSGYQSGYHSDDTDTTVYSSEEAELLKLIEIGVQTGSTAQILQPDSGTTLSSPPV", "UniProt P35918, residues 20-762": "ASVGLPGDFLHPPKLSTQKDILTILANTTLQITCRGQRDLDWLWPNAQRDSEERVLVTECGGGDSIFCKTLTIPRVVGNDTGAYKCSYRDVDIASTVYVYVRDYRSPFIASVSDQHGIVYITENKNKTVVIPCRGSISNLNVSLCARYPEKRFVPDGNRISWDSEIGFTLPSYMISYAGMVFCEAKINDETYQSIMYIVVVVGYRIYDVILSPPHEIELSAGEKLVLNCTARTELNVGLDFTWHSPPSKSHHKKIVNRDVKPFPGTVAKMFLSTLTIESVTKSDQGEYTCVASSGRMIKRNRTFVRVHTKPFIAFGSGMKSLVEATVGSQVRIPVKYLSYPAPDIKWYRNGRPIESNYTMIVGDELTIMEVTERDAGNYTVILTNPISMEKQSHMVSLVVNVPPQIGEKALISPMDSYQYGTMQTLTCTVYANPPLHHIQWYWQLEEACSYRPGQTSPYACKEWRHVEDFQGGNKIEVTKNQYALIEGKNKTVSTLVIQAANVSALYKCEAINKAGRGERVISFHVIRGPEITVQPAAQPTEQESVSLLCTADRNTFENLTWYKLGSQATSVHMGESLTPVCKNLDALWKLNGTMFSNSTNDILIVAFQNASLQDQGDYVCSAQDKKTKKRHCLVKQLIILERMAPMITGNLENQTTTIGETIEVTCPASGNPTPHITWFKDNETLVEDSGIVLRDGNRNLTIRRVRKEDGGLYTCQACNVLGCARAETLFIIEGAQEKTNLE"},
  "source": "patent US20100310549A1",
  "about": "(Bristol-Myers Squibb, published 2010)",
  "binders": {"B1": {"name": "E19, E. coli-expressed, His6 (designed binder)", "chain": "EVVAATPTSLLISWRHPHFPTRYYRITYGETGGNSPVQEFTVPLQPPTATISGLKPGVDYTITGYAVTVERNGRHLMTPISINYRTEIDKPSQHHHHHH", "notes": "soluble E. coli form; N-terminal residues added for expression not described"}, "B2": {"name": "E18, E. coli-expressed, His6 (designed binder)", "chain": "EVVAATPTSLLISWRHPHFPTRYYRITYGETGGNSPVQEFTVPLQPPTATISGLKPGVDYTITGYAVTVERNGRELNTPISINYRTEIDKPSQHHHHHH", "notes": "as for B1"}, "B3": {"name": "E29, E. coli-expressed, His6 (designed binder)", "chain": "EVVAATPTSLLISWRHPHFPTRYYRITYGETGGNSPVQEFTVPLQPPTATISGLKPGVDYTITGYAVTVERNGRVLMTPISINYRTEIDKPSQHHHHHH", "notes": "as for B1"}, "B4": {"name": "E6 (designed binder)", "chain": "EVVAATPTSLLISWRHPHFPTRYYRITYGETGGNSPVQEFTVPLQPPTATISGLKPGVDYTITGYAVTDGWNGRLLSIPISINYRT"}},
  "key": {"[1]": {"target": "full-length human KDR on CHO-KDR cells (human) (UniProt P35968)", "experiment": "flow cytometry on CHO-KDR cells, His6-tagged binder, anti-His6 MAb and Alexa Fluor 488 anti-mouse antibody"}, "[2]": {"target": "mouse vascular endothelial growth factor receptor-2 Fc chimera (Flk-1-Fc) (mouse) (UniProt P35918)", "experiment": "radioactive equilibrium binding assay, saturation binding, Flk-1-Fc 0-50 nM"}, "[3]": {"target": "mouse vascular endothelial growth factor receptor-2 Fc chimera (Flk-1-Fc) (mouse) (UniProt P35918)", "experiment": "radioactive equilibrium binding assay, 1 nM Flk-1-Fc, percent bound, average of 3 experiments"}},
  "note": "No constants are given. Whether binding was seen depends on the method and setting. Some results given as binding are weak or reduced against the parent protein; the word gives no strength. For some assays here: Where a sequence is shown, tags or fusion partners need not be part of it.",
  "data": [
    {"binder": "B1", "values": [
      {"measurement": "binding", "setting": "[1]", "result": "binds"}
    ]},
    {"binder": "B2", "values": [
      {"measurement": "binding", "setting": "[1]", "result": "binds"}
    ]},
    {"binder": "B3", "values": [
      {"measurement": "binding", "setting": "[1]", "result": "binds"}
    ]},
    {"binder": "B4", "values": [
      {"measurement": "binding", "setting": "[2]", "result": "binds"},
      {"measurement": "binding", "setting": "[3]", "result": "binds"}
    ]}
  ]
}
